Only a part is listed here, and it is no random draw.

By UniProt entry, the sequences of proteins in these tests, tags left out. Where a name states a change or a piece, a line headed by the entry shows the natural chain unless it says otherwise.
UniProt Q1ED39: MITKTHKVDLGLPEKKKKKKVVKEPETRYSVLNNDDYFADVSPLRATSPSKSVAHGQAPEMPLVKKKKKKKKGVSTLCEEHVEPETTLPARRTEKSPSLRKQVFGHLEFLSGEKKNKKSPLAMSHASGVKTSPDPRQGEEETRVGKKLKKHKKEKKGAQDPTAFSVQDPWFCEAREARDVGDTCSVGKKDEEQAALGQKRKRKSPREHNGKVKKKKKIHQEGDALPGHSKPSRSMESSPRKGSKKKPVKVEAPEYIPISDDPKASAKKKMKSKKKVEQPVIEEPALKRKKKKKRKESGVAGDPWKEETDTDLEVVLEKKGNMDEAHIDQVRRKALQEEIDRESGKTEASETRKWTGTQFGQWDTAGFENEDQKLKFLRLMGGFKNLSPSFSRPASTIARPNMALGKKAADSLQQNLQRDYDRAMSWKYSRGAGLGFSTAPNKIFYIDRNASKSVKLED
UniProt Q16643: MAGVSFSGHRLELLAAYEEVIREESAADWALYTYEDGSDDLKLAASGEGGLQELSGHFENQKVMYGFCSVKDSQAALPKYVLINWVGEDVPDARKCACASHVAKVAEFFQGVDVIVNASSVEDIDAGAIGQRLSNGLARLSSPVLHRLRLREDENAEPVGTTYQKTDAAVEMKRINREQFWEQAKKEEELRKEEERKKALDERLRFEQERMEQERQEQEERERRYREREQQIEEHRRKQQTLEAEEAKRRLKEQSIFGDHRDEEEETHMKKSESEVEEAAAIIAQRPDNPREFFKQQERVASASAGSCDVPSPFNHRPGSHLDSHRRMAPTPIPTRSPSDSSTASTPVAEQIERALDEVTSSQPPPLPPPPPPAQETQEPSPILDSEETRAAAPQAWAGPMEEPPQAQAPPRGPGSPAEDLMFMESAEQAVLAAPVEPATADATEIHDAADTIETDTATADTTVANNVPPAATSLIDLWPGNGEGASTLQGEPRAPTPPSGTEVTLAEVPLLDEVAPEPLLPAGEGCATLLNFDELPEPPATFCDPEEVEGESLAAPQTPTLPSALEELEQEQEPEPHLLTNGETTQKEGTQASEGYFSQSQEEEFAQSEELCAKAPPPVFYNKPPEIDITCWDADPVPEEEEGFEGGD
UniProt Q15398: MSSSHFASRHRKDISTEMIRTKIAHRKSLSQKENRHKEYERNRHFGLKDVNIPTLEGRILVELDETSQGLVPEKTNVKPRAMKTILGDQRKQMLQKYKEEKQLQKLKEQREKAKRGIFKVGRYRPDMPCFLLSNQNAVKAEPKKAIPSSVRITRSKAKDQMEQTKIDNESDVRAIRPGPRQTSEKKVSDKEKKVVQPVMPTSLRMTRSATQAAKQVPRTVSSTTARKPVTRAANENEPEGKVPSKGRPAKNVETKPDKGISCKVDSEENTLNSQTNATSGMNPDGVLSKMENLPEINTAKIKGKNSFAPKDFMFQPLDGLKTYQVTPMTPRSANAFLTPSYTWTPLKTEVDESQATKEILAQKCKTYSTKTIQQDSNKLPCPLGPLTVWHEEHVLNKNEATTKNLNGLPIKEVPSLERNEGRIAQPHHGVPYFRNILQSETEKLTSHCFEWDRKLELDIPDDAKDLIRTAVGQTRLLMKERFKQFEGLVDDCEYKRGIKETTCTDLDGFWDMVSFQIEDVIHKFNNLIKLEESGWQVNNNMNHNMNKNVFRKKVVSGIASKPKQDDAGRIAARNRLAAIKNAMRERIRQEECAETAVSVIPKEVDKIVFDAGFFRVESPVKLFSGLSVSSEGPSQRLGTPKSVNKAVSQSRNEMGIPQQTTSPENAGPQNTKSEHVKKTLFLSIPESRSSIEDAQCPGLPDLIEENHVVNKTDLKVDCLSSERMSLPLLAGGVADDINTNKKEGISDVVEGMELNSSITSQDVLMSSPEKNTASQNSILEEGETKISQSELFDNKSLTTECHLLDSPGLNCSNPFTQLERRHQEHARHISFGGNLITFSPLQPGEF
UniProt Q32MZ4: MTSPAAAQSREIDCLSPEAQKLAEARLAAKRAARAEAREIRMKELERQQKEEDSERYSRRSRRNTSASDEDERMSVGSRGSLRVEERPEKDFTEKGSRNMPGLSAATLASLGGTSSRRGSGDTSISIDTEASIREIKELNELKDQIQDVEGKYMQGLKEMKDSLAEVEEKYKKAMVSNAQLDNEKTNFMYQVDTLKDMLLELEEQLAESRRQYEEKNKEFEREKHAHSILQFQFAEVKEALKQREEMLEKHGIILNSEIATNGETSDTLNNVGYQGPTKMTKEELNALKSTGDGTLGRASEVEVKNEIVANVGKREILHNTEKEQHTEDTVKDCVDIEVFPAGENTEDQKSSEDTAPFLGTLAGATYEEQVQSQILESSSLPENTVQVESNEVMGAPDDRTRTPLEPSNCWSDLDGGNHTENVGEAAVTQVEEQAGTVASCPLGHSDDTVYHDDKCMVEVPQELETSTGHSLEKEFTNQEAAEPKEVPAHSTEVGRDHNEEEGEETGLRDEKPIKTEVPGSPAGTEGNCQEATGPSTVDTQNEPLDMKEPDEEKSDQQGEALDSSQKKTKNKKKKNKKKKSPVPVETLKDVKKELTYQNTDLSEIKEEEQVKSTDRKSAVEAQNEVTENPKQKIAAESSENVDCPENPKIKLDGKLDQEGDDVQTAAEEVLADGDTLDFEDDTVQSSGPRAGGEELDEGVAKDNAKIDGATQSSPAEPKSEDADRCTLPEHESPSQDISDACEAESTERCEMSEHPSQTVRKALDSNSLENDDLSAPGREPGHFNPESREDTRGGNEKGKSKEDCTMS
UniProt Q15084: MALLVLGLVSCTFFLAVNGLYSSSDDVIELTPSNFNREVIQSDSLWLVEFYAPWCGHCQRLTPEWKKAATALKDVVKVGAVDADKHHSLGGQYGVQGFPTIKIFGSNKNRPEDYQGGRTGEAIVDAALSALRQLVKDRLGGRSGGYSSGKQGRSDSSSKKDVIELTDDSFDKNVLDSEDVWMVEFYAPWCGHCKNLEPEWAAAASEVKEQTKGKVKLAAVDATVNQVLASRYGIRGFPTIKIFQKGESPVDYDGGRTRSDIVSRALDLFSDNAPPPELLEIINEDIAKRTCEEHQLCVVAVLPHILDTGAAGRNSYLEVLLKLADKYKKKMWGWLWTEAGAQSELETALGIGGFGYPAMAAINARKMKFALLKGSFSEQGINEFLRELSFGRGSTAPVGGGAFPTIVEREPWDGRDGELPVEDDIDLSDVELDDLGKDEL
UniProt Q16851: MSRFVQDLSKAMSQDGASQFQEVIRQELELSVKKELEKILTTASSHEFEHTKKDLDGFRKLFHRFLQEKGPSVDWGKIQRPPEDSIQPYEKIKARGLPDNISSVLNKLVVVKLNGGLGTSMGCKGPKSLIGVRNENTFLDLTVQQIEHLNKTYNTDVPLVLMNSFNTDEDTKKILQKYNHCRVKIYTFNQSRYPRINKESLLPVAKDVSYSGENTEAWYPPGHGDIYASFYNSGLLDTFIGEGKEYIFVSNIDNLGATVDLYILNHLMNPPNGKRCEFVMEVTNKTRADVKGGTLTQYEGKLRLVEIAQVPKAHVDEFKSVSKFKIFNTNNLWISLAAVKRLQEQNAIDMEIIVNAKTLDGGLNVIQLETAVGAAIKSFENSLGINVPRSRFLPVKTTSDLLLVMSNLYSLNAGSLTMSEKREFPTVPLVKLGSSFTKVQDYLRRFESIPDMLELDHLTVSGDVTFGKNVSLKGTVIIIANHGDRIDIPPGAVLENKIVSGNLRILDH
UniProt Q15392: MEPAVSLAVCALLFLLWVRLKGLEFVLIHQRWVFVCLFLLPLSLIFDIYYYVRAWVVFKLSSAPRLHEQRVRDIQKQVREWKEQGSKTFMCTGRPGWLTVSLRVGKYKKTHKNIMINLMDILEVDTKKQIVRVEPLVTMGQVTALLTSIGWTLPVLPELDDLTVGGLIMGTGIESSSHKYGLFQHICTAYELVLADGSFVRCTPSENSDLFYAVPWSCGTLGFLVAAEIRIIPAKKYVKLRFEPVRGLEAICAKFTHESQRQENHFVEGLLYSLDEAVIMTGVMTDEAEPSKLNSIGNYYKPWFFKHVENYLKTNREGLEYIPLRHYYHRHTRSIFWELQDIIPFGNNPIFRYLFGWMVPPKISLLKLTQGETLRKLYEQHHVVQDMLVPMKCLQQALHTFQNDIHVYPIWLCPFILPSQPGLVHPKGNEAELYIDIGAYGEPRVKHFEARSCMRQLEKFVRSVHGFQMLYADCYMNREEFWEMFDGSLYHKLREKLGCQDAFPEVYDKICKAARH
UniProt Q15643: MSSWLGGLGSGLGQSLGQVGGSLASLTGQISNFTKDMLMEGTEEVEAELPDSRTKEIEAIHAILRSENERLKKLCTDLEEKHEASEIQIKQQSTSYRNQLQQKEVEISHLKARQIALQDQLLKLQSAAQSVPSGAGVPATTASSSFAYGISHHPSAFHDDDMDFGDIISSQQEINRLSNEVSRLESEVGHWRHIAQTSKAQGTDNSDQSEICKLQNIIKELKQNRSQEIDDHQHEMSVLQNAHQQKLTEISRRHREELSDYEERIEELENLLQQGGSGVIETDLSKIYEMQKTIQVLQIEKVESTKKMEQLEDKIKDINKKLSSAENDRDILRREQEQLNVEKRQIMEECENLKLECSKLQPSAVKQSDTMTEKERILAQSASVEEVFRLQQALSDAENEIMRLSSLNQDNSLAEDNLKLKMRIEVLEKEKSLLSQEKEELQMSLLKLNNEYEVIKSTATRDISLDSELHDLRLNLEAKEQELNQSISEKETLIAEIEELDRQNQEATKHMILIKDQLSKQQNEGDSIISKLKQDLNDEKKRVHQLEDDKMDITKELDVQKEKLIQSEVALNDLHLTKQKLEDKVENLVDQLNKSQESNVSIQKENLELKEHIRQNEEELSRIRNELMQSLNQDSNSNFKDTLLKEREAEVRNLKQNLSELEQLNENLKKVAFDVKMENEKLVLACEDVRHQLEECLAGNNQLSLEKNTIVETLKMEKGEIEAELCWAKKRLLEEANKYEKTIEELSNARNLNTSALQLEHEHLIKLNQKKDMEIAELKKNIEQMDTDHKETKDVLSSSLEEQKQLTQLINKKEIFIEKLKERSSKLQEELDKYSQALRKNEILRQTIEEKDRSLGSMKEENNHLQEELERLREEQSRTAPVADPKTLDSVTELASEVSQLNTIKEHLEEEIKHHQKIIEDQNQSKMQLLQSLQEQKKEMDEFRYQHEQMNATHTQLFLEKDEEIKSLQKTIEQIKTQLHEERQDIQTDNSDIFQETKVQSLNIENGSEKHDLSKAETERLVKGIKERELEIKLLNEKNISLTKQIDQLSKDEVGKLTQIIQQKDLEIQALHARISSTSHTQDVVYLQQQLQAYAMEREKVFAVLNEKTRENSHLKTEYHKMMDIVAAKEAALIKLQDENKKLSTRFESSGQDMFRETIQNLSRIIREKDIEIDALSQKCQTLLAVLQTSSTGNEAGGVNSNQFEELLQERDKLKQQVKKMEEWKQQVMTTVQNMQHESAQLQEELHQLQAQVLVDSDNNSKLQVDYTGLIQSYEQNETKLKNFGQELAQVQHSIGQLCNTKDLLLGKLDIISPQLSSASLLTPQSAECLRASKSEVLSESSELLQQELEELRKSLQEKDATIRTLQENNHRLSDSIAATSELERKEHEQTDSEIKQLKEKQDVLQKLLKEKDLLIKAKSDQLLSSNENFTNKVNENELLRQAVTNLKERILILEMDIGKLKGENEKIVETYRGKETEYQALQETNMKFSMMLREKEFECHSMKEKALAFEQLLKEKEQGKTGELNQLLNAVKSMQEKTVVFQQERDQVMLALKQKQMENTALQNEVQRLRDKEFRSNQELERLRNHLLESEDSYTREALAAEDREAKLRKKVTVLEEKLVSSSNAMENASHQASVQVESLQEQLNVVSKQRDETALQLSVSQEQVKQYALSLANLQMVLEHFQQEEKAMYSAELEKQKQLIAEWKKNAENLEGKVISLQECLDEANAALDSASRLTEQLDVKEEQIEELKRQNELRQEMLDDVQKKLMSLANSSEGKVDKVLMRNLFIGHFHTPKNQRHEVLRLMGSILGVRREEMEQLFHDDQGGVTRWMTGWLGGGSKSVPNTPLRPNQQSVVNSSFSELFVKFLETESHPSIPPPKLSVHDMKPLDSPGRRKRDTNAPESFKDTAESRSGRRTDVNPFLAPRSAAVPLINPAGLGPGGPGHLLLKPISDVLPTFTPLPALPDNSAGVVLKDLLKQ
UniProt Q15717, whole entry: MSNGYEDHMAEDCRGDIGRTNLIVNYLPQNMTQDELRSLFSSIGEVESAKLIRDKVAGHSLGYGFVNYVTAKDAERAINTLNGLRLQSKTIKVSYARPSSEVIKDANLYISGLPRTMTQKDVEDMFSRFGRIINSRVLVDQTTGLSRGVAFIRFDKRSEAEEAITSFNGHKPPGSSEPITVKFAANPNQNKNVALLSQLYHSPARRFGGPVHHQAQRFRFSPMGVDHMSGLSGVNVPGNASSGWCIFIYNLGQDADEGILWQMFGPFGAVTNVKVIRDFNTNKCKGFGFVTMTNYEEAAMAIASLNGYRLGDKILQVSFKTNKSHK

Compound in the assay: COC(=O)C#Cc1ccccc1 [methyl 3-phenylpropiolate]
As to the kind of experiment: log2 ratio of iodoacetamide-alkyne labeling of the cysteine site, DMSO over compound (competition); higher = stronger covalent engagement of the cysteine by the compound, active = 1 or more. The note with it: 500 µM; treatment time 1 h; system: HEK293T cell lysate. The method in brief:
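Reporter intensities give each cysteine's log2 competition ratio as the mean of control channels over the mean of compound channels. The samples were HEK293T lysate (2 mg/mL) given vehicle or electrophile (500 µM, 1 h, ambient temperature), then iodoacetamide alkyne (1 h), followed by click coupling to sCIP-TMT reagents, pooling, trypsin digestion overnight at 37 °C, streptavidin enrichment, acid elution, Orbitrap Eclipse LC-MS/MS with FAIMS and FragPipe quantification. Duplicate channels and three replicates were run, and cysteines quantified in only one replicate were discarded.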
For ERCC6L C825 (UniProt Q2NKX8), the “log2 ratio of iodoacetamide-alkyne labeling” value (“log2 ratio” below) was inactive: 0.442.

Take SEC23A C432 (UniProt Q15436): the “log2 ratio” value is inactive: 0.163. The result for UniProt Q1ED39_C78 reads inactive: 0.247. The result for UniProt Q1ED39_C172 reads inactive: 0.712; that for QSER1 C530 (UniProt Q2KHR3), inactive: 0.146. The result for UniProt Q15365_C201 reads inactive: 0.616. Consider UBE3C C158 (UniProt Q15386), for which the “log2 ratio” value is inactive: 0.194. For DBN1 C96 (UniProt Q16643) the value was inactive: 0.28; for UniProt Q15365_C355, inactive: 0.6. For DLGAP5 C129 (UniProt Q15398) the value was active: 1.38; for LRRFIP1 C14 (UniProt Q32MZ4), inactive: 0.0967. For PDIA6 C190 (UniProt Q15084) the value was inactive: 0.226.

In the case of UniProt Q49MG5_C239, the “log2 ratio” value was inactive: 0.191.

As to PDIA6 C193 (UniProt Q15084), the “log2 ratio” value is inactive: 0.272. TRIP6 C399 (UniProt Q15654): the “log2 ratio” value was inactive: 0.245. The result for SEC23B C180 (UniProt Q15437) reads inactive: 0.377; that for PDIA6 C55 (UniProt Q15084), inactive: -2.5e-05; that for UGP2 C123 (UniProt Q16851), inactive: 0.0184. For DHCR24 C91 (UniProt Q15392) the value was inactive: 0.502; for PDS5A C1093 (UniProt Q29RF7), inactive: 0.237; for TRIP11 C1722 (UniProt Q15643), inactive: 0.115. The result for IAH1 C4 (UniProt Q2TAA2) reads active: 2.43; that for TBC1D10B C590 (UniProt Q4KMP7), inactive: 0.304; that for ELAVL1 C13 (UniProt Q15717), inactive: 0.328. Consider MED1 C324 (UniProt Q15648), for which the “log2 ratio” value is inactive: -0.00344. The result for UniProt Q15046_C496 reads inactive: -0.0363; that for SF1 C292 (UniProt Q15637), inactive: 0.123; that for PDS5A C242 (UniProt Q29RF7), inactive: 0.194.

In the case of ANO6 C105 (UniProt Q4KMQ2), the “log2 ratio” value was inactive: 0.0829.

As to LRRC41 C170 (UniProt Q15345), the “log2 ratio” value was inactive: 0.328. The result for RRS1 C52 (UniProt Q15050) reads inactive: 0.186; that for NONO C145 (UniProt Q15233), inactive: 0.485; that for UniProt Q15369_C11, inactive: 0.0418.

Take TWISTNB C28 (UniProt Q3B726): the “log2 ratio” value is inactive: 0.889. Turning to EZH2 C83 (UniProt Q15910), the “log2 ratio” value was inactive: 0.434. As to LRRC14 C71 (UniProt Q15048), the “log2 ratio” value is inactive: 0.318. For FLYWCH1 C173 (UniProt Q4VC44) the value was inactive: -0.0462; for LRRC14 C68 (UniProt Q15048), inactive: 0.318.
